Measurements published in article PMC8779298, “The Campylobacter jejuni Response Regulator and Cyclic-Di-GMP Binding CbrR Is a Novel Regulator of Flagellar Motility” (Microorganisms, 2021).
Where two headings read alike, the source gives them in different places.

Tested on: T1, CbrR
T1 construct: gene CJJ81176_0671
Details: labelled compound (32P), 10 mM Tris pH 8.0, 5 mM MgCl2, 100 mM NaCl

Compound | DRaCALA, nitrocellulose spot; competition with unlabelled nucleotides | DRaCALA, nitrocellulose spot; competition with unlabelled nucleotides (I-site)
Nc1nc2c(ncn2[C@@H]2O[C@H](COP(=O)(O)OP(=O)(O)OP(=O)(O)O)[C@@H](O)[C@H]2O)c(=O)[nH]1 [GTP] | this assay indicated efficient binding of both GTP and c-di-GMP | 
Nc1nc2c(ncn2[C@@H]2O[C@@H]3COP(=O)(O)O[C@H]4[C@@H](O)[C@H](n5cnc6c(=O)[nH]c(N)nc65)O[C@@H]4COP(=O)(O)O[C@H]3[C@H]2O)c(=O)[nH]1 [c-di-GMP] |  | this assay indicated efficient binding of both GTP and c-di-GMP
